Numbering of substitutions follows the chain as printed. Results are given in words; binding and its absence hold for the method and conditions named. Some results given as binding are weak or reduced against the parent protein; the word gives no strength. Each block holds one binder with its values, some of them ahead of it.
Biological target: rhesus TIGIT expressed on the cell surface of Jurkat cells (rhesus)
Experiment: flow cytometry on Jurkat-rhesTIGIT cells

B1: 45.32B10.A4 (antibody, V domains shown)
VH: EVQLVESGGVLVKPGGSLKLSCAASGFTFSNYVMSWVRQTPEKRLEWVATITSGGTYTYYPDSVKGRFTISRDNAKNILYLQMSSLRSEDTALYYCTRWLLSLYAMDYWGQGTSVTVSS
VL: DIQMTQTTSSLSASLGDRVTITCRASQDISNFLNWYQQKPDGTVKLLIYYTSRLHSGVPSRFSGSGSGTDYSLTISNLEQEDIATYFCQQGKTYPYTFGGGTKVEIK
binding: binds

B7: 45.49H11.H11 (antibody, V domains shown)
VH: EVQLQQSGPELVKPGASVKMSCKTSKYTFTNYVLHWVKQKPGQGLEWIGYINPYNDGTKYNEKFKGKATLTSDKSSSTAYMELSSLTSEDSAVYYCARSYQSNYGFGYWGQGTLVTVSA
VL: DIVMTQSHKFMSTSVGDRVSITCKASQHVSTAVVWYRQIPGQSPKILINSASYRYTGVPDRFTGSGSGTDFTFTISSVQAEDLAVYYCQQHYSIPWTFGGGTKLEIK
binding: binds

B8: 45.32A8.G6 (antibody, V domains shown)
VH: QVQLKESGPGLVAPSHSLSITCTVSGFSLTNYNINWIRQPPGKGLEWLGIIWTGGGTNYNSAFMSTLSINKDNSKSQVFLKMNRMQTDDTTIYYCVRETYFNNYGFYFDYWGQSTTLTVSS
VL: EIVLTQSPTTMAASPGEKITITCSASSSISSNYLHWYQQKPGFSPKLLIYRTSNLASGVPARFSGSGSGTSYSLTIGTMEAEDVATYYCQQGSSIPRTFGGGTKLEIK
binding: binds

B9: 45.31G8.E9 (antibody, V domains shown)
VH: QIQLQQSGAELVRPGTSVKMSCKAVGYTFTNYWINWVKQRPGHGFEWIGDIYPGGYYINYNEKFKGKATLTADTSSSTAYMQLSSLTSEDSAIYYCARGYGSYAMDYWGQGTSVTVSS
VL: DIVMTQSQKFMSTSVGDRVSITCKASQNVRTDVVWYQQKPGQSPKALIFLASNRHTGVPDRFTGSGSGTDFTLTISNVQSEDLADYFCLQHWNYPYTFGGGTKLEIK
binding: binds

Other lines, results leading:

binding: binds
B2: 45.56F7.A1 (antibody, V domains shown)
VH: B1 VH with V10A, V33A, T52S, T56S, I78T, T97A
VL: B1 VL with I2F, T22S, A25S, F32Y, Y50R, Q80R, Y94P, V104L

binding: binds
B3: 45.62B12.G5 (antibody, V domains shown)
VH: DVQLQESGPGLVKPSQSLSLTCTVTGYSITSAYDWHWIRHFPGNILEWMGYIRNSGSTNYNPLLKSRISITHDTSQNHFSLKLNSVTTEDTATYYCARGLFWYFDVWGAGTTVTVSS
VL: DIQMTQSPASLSASVGETVTITCRASENIYNYLTWYQQKQGKSPQLLVYNAKTLAEGVPSRFSGSGSGTQFSLKINSLQPEDFGSYYCQHHYGNPLTFGAGTKLELK

binding: binds
B4: 45.86C5.C3 (antibody, V domains shown)
VH: DVQLQESGPGLVKPSQSLSLTCTVTGYSITSGYDWHWIRHFPGNILEWMGYISDSGNTIYSPSLKSRISITHDTSKNHFFLKLNSVTSEDTATYYCARGSFWYFDVWGAGTTVTVSS
VL: B3 VL with A25V, N31S, T34A, A51T

binding: binds
B5: 45.87B8.H2.H5 (antibody, V domains shown)
VH: B4 VH with G32A, H40L, N44H, D54Y, S61N, S88T
VL: B3 VL with A25V, N28H, T34A, S85T, H91N, L104V

binding: binds
B6: 45.75D4.D3.D9 (antibody, V domains shown)
VH: EVQLQQSGPELVKPGASMKMSCKASGYKFTSYVMHWVKQKPGQGLEWIGYIDPYNDGSKYNEKFKGKATLTSDKSSSIAYMELSSLTSEDSAVFYCARGGSRGWYFDVWGAGTTVTVSS
VL: B3 VL with I21F, A25T, S26N, N31S, L46V, Y87F, Y92F

From patent US20240425588A1
